Measurements taken from patent US20240382438A1, “Calcium Channel Blockers and Methods Thereof” (University of Maryland, Eastern Shore, priority 2023, published 2024).
Entries after “also recorded” stand apart in the source; their conditions may differ. Some compounds share one wording; it may come from a single statement.

What was measured:
T-type Ca^2+ channels = assay: Whole-cell recording of T-type Ca2+ currents in differentiated ND7/23 cells; type: cell-based, mouse neuroblastoma and rat dorsal root ganglion cells; conditions: 50 μM, Ca2+ current recordings
Description: (§1) ND7/23 cells are derived from the fusion of mouse neuroblastoma and rat dorsal root ganglion cells, which generates a more homogeneous sensory neuron-like cell population. ND7/23 cells were purchased from Sigma-Aldrich (RRID:CVCL_4259). Culture and differentiation of ND7/23 cells was performed as previously described. Briefly, ND7/23 cells were cultured in DMEM/F12 culture media (Millipore, Cat. #DF-041-B), supplemented with 0.5% fetal bovine serum (Invitrogen, Cat. #10437010), db-cAMP (1 mM, Sigma-Aldrich, Cat. #D0627), and nerve growth factor (NGF, 50 ng/mL, Sigma-Aldrich, Ca. #N2513). To remove any proliferating cells, cultures were treated with uridine (20 μM, Sigma-Aldrich, Cat. #U3003) and fluorodeoxyuridine (20 μM, Sigma-Aldrich, Cat. #F0503). Cells were maintained in differentiation media without uridine and fluorodeoxyuridin after induction of differentiation. ND7/23 cells were maintained in differentiation media for ≤6 days. HEK 293 cells that were stabled transfected with the human Cav3.2 and Cav3.3 channel subunits were a gift of Dr. E. Perez-Reyes (University of Virginia). Cav3.2 (or Cav3.3)-stabled transfected HEK 293 cells were culture in DMEM/F12 culture media, supplemented with 5% fetal bovine serum, 50 U/mL penicillin and 50 μg/mL streptomycin. ND7/23 and HEK 293 cells were grown in an incubator at 37° C. in the presence of 5% CO2/95% air humidified atmosphere. Cells passaged less than 20 times were used in this work. Cells were grown in poly-D-lysine-coated glass coverslips for electrophysiological recordings.
(§2) Whole cell recordings were performed as previously described. A Nikon Eclipse Ti inverted microscope equipped with Hoffman optics and epifluorescence filters was used to visualize individual cells. Recordings were performed at room temperature (22-24° C.) using glass electrodes made from thin wall borosilicate glass (3-5 MΩ). For electrophysiological recordings of inward Ca^2+ currents, outward K^+ currents were eliminated by equimolar substitution of K^+ with Cs^+ in the pipette solution, whereas inward Na^+ currents were eliminated by the use of TEA ions in the external solution, which are unable to go through voltage-gated Na^+ channels. The pipette solution consisted of (in mM) CsCl (120), MgCl2(2), HEPES (10), EGTA (10), ATP (1), and GTP (0.1), pH 7.4 with CsOH. The composition of the normal external saline used for measurements of Ca^2+ currents was (in mM): tetraethylammonium chloride (TEACl, 145), CaCl2 (10), MgCl2(1), HEPES (10), and glucose (5), pH 7.4 adjusted with CsOH. Ca^2+ currents were generated by applying a 200-500 ms-depolarizing step to various potentials from a holding potential of −100 mV. The external solution used to measure Na^+ currents contained (in mM) NaCl (145), KCl (5.3), CaCl2 (0.5), MgCl2 (5.7), HEPES (13), and glucose (5), pH 7.4 adjusted with KOH. The composition of the CsCl-pipette solution used to record Na^+ currents was the same describe above. Na^+ currents were generated by applying a 20 ms-depolarizing step to various potentials from a holding potential of −100 mV. To assess drug-evoked changes on specific ionic conductances, current amplitudes were expressed as current densities as previously reported. To assess current densities, cell size was normalized by dividing current amplitudes by cell capacitance. Cell capacitance was determined by integrating the transient current evoked by a 10-mV voltage step from a holding potential of −60 mV.
A MULTICLAMP 700A amplifier and PCLAMP software (Axon Instruments) was used to deliver voltage commands and to perform data acquisition and analysis. Pipette offset, whole cell capacitance, and series resistance were compensated automatically with the MultiClamp 700B Commander. Only cells with stable seals and series resistance (≤10 MΩ) were analyzed. Sampling rates were between 5 and 10 kHz. Leak currents were subtracted online using a P/4 protocol. […]

[1] = system: voltage-activated Na^+ channels; assay: Whole-cell recording of Na+ currents in differentiated ND7/23 cells; type: cell-based, mouse neuroblastoma and rat dorsal root ganglion cells; conditions: 50 μM, Na+ current recordings
Description: as §1
as §2, with “Na^+ currents were generated by applying a 20 ms-depolarizing step to various potentials from a holding potential of −100 mV.” left out, “To assess current densities, cell size was normalized by dividing current amplitudes by cell capacitance.” left out
A MULTICLAMP 700A amplifier and PCLAMP software (Axon Instruments) was used to deliver voltage commands and to perform data acquisition and analysis. […] Only cells with stable seals and series resistance (≤10 MΩ) were analyzed. […]

Row | Compound | Effect on whole cell capacitance (T-type Ca^2+ channels) | Effect on whole cell capacitance [1] | Effect on whole cell capacitance ([1]; listed as RHB 111) | Effect on whole cell capacitance (T-type Ca^2+ channels; listed as IAB65) | Effect on whole cell capacitance (T-type Ca^2+ channels; listed as TTA40)
1 | CC1CC(=O)C=C(NC(=O)c2cccc(C(F)(F)F)c2)C1 (stereo not shown) [IAB15, N-(5-methyl-3-oxocyclohex-1-en-1-yl)-3-(trifluoromethyl) benzamide] | no effect on cell capacitance | no noticeable effect; also recorded: no effect on cell capacitance | – | – | –
2 | CC(C)C1CC(=O)C=C(NC(=O)c2ccc(C(F)(F)F)cc2)C1 (stereo not shown) [IAC41, N-(5-isopropyl-3-oxocyclohex-1-en-1-yl)-4-(trifluoromethyl) benzamide] | None of the tested compounds has any effect; also recorded: no effect on cell capacitance | – | – | – | –
3 | O=C1C=C(NC(=O)c2cccc(OC(F)(F)F)c2)CC(C(F)(F)F)C1 (stereo not shown) [RHB121, N-(3-oxo-5-(trifluoromethyl)cyclohex-1-en-1-yl)-3-(trifluoromethoxy)benzamide] | – | does not affect | no effect on cell capacitance | – | –
4 | CC1CC(=O)C=C(NC(=O)c2ccccc2C(F)(F)F)C1 (stereo not shown) [IAA61, N-(5-methyl-3-oxocyclohex-1-en-1-yl)-2-(trifluoromethyl) benzamide] | no effect on cell capacitance | no noticeable effect; also recorded: no effect on cell capacitance | – | – | –
5 | CC1CC(=O)C=C(NC(=O)c2ccccc2F)C1 (stereo not shown) [IAB67, 2-fluoro-N-(5-methyl-3-oxocyclohex-1-en-1-yl) benzamide] | None of the tested compounds has any effect | – | – | no effect on cell capacitance | –
6 | CC1CC(=O)C=C(NC(=O)c2cc(C(F)(F)F)cc(C(F)(F)F)c2)C1 (stereo not shown) [IAA65, N-(5-methyl-3-oxocyclohex-1-en-1-yl)-3,5-bis(trifluoromethyl) benzamide] | no effect on cell capacitance | no noticeable effect; also recorded: no effect on cell capacitance | – | – | –
7 | CC1CC(=O)C=C(NC(=O)c2ccc(C(F)(F)F)cc2)C1 (stereo not shown) [THA40, N-(5-methyl-3-oxocyclohex-1-en-1-yl)-4-(trifluoromethyl) benzamide] | None of the tested compounds has any effect | – | – | – | no effect on cell capacitance
